Measurements reported in article PMC12830901.
Substitutions are numbered along the chain they refer to. No constants are given. Whether binding was seen depends on the method and setting. In cells and extracts the contact can be indirect. Tags and fused reporters may be left off the sequences shown.

The chains behind the UniProt entries cited, without tags or fusion partners.
UniProt P49407: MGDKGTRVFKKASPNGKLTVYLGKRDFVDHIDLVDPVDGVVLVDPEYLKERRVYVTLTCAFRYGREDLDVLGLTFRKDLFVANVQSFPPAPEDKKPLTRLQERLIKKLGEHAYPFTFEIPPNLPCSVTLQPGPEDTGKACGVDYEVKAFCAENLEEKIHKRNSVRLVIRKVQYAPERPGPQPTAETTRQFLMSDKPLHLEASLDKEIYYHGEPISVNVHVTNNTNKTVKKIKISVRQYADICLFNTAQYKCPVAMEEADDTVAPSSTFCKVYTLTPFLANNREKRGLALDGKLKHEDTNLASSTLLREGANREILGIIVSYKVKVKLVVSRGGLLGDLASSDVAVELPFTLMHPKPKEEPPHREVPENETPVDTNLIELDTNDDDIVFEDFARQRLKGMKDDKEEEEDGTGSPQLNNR

What was measured:
Assay in all cases: split reporter; receptor-SmBiT and LgBiT-mini-G, LgBiT-mini-GΔα5 or LgBiT-β-arrestin transiently co-transfected in HEK293T; live cells 48 h after transfection; NanoBiT PPI system (Promega), luminescence normalised by the expression of both constructs; in the mutant and ΔHA panels the mini-GΔα5 signal was subtracted and results given as a percentage of the reference construct
[1] = target: T1, ADGRL4 'C-terminal Fragment 1' (CTF1), HA- and SmBiT-tagged (human) (UniProt Q9HBW9)
T1 sequence: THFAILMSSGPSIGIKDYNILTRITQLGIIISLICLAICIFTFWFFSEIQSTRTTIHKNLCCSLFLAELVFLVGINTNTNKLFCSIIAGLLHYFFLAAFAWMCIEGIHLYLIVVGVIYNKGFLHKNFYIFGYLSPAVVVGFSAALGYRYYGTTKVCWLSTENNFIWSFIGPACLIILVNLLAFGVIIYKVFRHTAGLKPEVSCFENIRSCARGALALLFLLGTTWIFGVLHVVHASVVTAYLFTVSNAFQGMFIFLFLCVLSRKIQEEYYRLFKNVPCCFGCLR

[2] = target: T2, ADGRL4 'Full-Length 1' (FL1), HA- and SmBiT-tagged (human) (UniProt Q9HBW9)
T2 sequence: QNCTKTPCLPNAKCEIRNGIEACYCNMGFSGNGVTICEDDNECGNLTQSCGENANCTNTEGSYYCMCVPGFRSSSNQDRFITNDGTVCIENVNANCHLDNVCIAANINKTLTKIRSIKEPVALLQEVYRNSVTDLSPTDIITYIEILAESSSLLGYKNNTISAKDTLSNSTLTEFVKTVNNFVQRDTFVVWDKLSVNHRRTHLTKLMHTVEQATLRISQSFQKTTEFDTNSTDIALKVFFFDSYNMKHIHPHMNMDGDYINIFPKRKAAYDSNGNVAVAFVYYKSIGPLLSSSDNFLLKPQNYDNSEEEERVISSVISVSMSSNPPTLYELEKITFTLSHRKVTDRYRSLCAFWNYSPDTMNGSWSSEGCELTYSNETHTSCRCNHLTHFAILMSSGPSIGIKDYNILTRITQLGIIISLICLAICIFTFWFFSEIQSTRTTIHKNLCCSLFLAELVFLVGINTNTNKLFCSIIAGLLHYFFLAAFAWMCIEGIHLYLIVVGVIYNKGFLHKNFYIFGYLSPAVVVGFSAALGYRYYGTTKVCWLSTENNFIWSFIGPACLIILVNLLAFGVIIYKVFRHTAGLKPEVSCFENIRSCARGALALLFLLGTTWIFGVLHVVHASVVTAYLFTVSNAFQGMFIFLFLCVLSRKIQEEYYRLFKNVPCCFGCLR

[3] = target: T3, ADGRL4 'Mutated Full-Length 1' (FLmut1), HA- and SmBiT-tagged (human) (UniProt Q9HBW9)
T3 sequence: T2 sequence with H386A, T388A

Measured: binding

LgBiT-βarr1 (β-arrestin 1) (from UniProt P49407 1-418)
no binding: [1] | [2] | [3]

LgBiT-βarr2 (β-arrestin 2) (from UniProt P32121 1-409)
no binding: [1] | [2] | [3]
